The values that follow come from paper PMC7949122 (The Journal of Biological Chemistry, 2021).

The target of the assay is T1, B1R^Flag-VC (human) (UniProt P46663).
T1 sequence: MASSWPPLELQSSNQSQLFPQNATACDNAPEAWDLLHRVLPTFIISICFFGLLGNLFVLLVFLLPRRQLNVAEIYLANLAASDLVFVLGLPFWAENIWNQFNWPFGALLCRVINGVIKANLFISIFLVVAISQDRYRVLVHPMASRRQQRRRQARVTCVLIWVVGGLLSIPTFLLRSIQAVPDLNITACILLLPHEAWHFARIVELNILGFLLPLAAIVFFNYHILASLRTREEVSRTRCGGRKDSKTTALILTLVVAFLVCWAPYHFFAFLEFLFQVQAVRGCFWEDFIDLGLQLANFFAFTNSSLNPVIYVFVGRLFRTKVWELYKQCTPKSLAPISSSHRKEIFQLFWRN
Put plainly: split reporter; BiFC with split Venus (VN amino acids 1-210, VC amino acids 210-238) in cotransfected HeLa cells grown 24 h, fixed, confocal microscopy.

No constants are given. Whether binding was seen depends on the method and setting. Binding seen in cells or lysates may run through a third protein. Tags and fused reporters may be left off the sequences shown.

In the case of VN-AltB2R^HA (human), the binding result is given as “no binding”.
